Results taken from publication PMC13399975.
No constants are given. Whether binding was seen depends on the method and setting. In cells and extracts the contact can be indirect. Tags and fused reporters may be left off the sequences shown.

Biological target: T1, WIPI1^HA (WIPI1 with a C-terminal HA tag) (human) (UniProt Q5MNZ9)
T1 sequence: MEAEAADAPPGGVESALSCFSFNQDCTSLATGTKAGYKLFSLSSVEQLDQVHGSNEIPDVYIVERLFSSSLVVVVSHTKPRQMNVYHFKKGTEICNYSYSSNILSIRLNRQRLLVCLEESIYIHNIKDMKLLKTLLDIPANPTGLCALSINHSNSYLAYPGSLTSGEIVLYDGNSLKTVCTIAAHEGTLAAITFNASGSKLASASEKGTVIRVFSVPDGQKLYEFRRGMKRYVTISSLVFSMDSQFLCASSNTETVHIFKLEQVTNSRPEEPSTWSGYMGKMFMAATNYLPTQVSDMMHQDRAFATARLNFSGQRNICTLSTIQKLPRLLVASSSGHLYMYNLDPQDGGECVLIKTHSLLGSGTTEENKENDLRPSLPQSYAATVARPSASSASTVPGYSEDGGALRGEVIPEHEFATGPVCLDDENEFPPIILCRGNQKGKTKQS
Test: co-IP; co-immunoadsorption: clarified Triton X-100 extracts (150 mM NaCl, 2 mM EDTA, 40 mM HEPES-NaOH pH 7.4, 1% Triton X-100, phosphatase and protease inhibitors) of HK2 cells stably expressing the HA-tagged PROPPIN, incubated 2 hr at 4°C with anti-HA beads, washed three times; adsorbed endogenous proteins shown by western blot; parental HK2 cells without HA tag as control

Question: With “VPS26C (Retriever subunit) (from UniProt O14972 1-297)” as the substance, how does the binding read?
Answer: no binding
